Laboratory results published in paper PMC8418608.

Target: T1, Lysine-specific methyltransferase Set7/9, Q8WTS6
T1 chain: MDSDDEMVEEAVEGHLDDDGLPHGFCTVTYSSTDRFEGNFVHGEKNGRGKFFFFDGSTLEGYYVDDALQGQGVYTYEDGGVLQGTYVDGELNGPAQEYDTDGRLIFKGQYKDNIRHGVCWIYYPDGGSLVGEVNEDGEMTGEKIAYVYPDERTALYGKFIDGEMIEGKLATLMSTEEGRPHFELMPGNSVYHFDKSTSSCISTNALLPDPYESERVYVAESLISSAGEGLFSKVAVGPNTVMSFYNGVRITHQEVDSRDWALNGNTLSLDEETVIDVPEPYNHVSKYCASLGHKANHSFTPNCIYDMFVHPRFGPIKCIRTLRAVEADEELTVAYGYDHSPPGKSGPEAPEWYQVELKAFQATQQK
Experiment: affinity purification with mass spectrometry; GST-pulldown assay coupled with LC-MS/MS mass-spectrometry to identify Set7/9 interacting proteins; no conditions given; only the target purified
Details: remark: other sources report otherwise

B1: HMBG1, P09429 1-215 (protein)
chain: MGKGDPKKPRGKMSSYAFFVQTCREEHKKKHPDASVNFSEFSKKCSERWKTMSAKEKGKFEDMAKADKARYEREMKTYIPPKGETKKKFKDPNAPKRPPSAFFLFCSEYRPKIKGEHPGLSIGDVAKKLGEMWNNTAADDKQPYEKKAAKLKEKYEKDIAAYRAKGKPDAAKKGVVKAEKSKKKKEEEEDEEDEEDEEEEEDEEDEDEEEDDDDE
  binding: binds

These are yes or no findings as the source states them, for the method shown. In cells and extracts the contact can be indirect. A yes stands for co-enrichment or nearness to the bait. Other partners may have been found.
